Data from PubChem BioAssay AID248 (DTP/NCI, 2004).
The list does not hold the whole screen: it is rich in T/C values a quarter to a half above the control, in often repeated tests (any T/C) and in doses without a T/C. Other doses and runs of a compound stand elsewhere. T/C: endpoint of the treated group in % of that of the vehicle group. Some entries give survivors of the animals treated and no T/C: the source files T/C as zero there, which appears to mark a toxic dose or a test without result, not a measured value. Some doses without a T/C left all or most animals alive at the check, yet need not have been tolerated: the source hardly ever lists a survival T/C far under the control, and the zero likely stands for such cases as well. Survivors were counted at the toxicity check, usually on the fifth day, unless a day is given; later deaths do not show. Schedules are NCI's codes, taken here to give the interval after Q, in days (D) or hours (H), and the number of doses after X. Some molecules as drawn cover several salts, stereoisomers or complexes of the source; a dose is that of the sample tested. Some doses were run more than once; their values stand side by side, smallest first. Where survival is the endpoint, the PubChem record calls one and a half times the control and up active, and a quarter to a half above the control has no call in these data; cut-offs in other NCI protocols can differ.

Test system: L1210 leukemia ip in BDF1 mice, survival T/C
Assay: NCI In Vivo Anticancer Drug Screen. Data for tumor model L1210 Leukemia (intraperitoneal) in B6D2F1 (BDF1) mice
Conditions: T/C endpoint: mean survival time, higher T/C = longer survival
[1] = dose: 100.0 mg/kg/injection, schedule: Q04DX003 (ip), vehicle: saline
[2] = dose: 300.0 mg/kg/injection, schedule: Q01DX001 (ip), vehicle: saline
[3] = dose: 200.0 mg/kg/injection, schedule: Q04DX003 (ip), vehicle: saline with Tween-80
[4] = dose: 400.0 mg/kg/injection, schedule: Q04DX003 (ip), vehicle: saline with Tween-80
[5] = dose: 100.0 mg/kg/injection, schedule: Q04DX003 (ip), vehicle: saline with Tween-80
[6] = dose: 200.0 mg/kg/injection, schedule: Q04DX003 (ip), vehicle: Klucel (hydroxypropylcellulose) (HPC)
[7] = dose: 400.0 mg/kg/injection, schedule: Q01DX001 (ip), vehicle: saline
[8] = dose: 400.0 mg/kg/injection, schedule: Q04DX003 (ip), vehicle: Klucel (hydroxypropylcellulose) (HPC)
[9] = dose: 100.0 mg/kg/injection, schedule: Q01DX009 (ip), vehicle: saline
[10] = dose: 200.0 mg/kg/injection, schedule: Q01DX009 (ip), vehicle: saline
[11] = dose: 400.0 mg/kg/injection, schedule: Q01DX009 (ip), vehicle: saline
[12] = dose: 50.0 mg/kg/injection, schedule: Q01DX009 (ip), vehicle: saline

With `CCCCCCCCCCCC[N+](C)(C)C` (tested in a mixture with another compound) as the molecule, how does the survivor count (dose: 20.0 mg/kg/injection, schedule: Q04DX003 (ip), vehicle: Klucel (hydroxypropylcellulose) (HPC)) read?
Its survivor count is 6 of 6.

And the survivor count (dose: 25.0 mg/kg/injection, schedule: Q04DX003 (ip), vehicle: saline)?
The survivor count was 6 of 6.

And the survivor count (dose: 28.0 mg/kg/injection, schedule: Q01DX009 (ip), vehicle: saline)?
The survivor count was 4 of 6.

What about the survivor count (dose: 40.0 mg/kg/injection, schedule: Q01DX009 (ip), vehicle: saline) of the same molecule?
The survivor count was 2 of 6.

And the survivor count (dose: 50.0 mg/kg/injection, schedule: Q04DX003 (ip), vehicle: saline)?
Its survivor count is 5 of 6.

And the survivor count (dose: 60.0 mg/kg/injection, schedule: Q01DX015 (ip), vehicle: saline)?
Its survivor count is 0 of 6.

What about the survivor count (dose: 75.0 mg/kg/injection, schedule: Q01DX001 (ip), vehicle: saline) of the same molecule?
The survivor count was 3 of 6.

What about the survivor count (dose: 80.0 mg/kg/injection, schedule: Q04DX003 (ip), vehicle: Klucel (hydroxypropylcellulose) (HPC)) of the same molecule?
The survivor count was 3 of 6.

And the survivor count [1]?
The survivor count was 0 of 6 and 1 of 6.

What about the survivor count (dose: 150.0 mg/kg/injection, schedule: Q01DX001 (ip), vehicle: saline) of the same molecule?
Its survivor count is 1 of 6.

What about the survivor count (dose: 200.0 mg/kg/injection, schedule: Q04DX003 (ip), vehicle: saline) of the same molecule?
The survivor count was 0 of 6.

And the survivor count [2]?
Its survivor count is 1 of 6.

What about the survivor count (dose: 400.0 mg/kg/injection, schedule: Q04DX003 (ip), vehicle: saline) of the same molecule?
The survivor count was 0 of 6.

`O=C(c1ccc(F)cc1)C(F)(F)F` was tested. Which survivor count (dose: 200.0 mg/kg/injection, schedule: Q01DX001 (ip), vehicle: Klucel (hydroxypropylcellulose) (HPC)) did it give?
Its survivor count is 6 of 6.

How did the survivor count [3] turn out when `Oc1cccc2oc(=S)[nH]c12` was run?
Its survivor count is 3 of 3.

And the survivor count [4]?
The survivor count was 0 of 3 and 1 of 3.

How did the survivor count (dose: 200.0 mg/kg/injection, schedule: Q01DX009 (ip), vehicle: gum acacia) turn out when `Cc1c(N=Cc2ccccc2)c(=O)n(-c2ccccc2)n1C` was run?
The survivor count was 6 of 6.

What does the source list for `CC12CC3CC(C)(C1)CC(CN=C(N)CSSCC(N)=NCC14CC5CC(C)(CC(C)(C5)C1)C4)(C3)C2`?
survivor count [5]: 0 of 6; survivor count [3]: 0 of 6; survivor count [4]: 0 of 6

What does the source list for `CCCCn1cnc(=S)c2[nH]cnc21`?
T/C [6]: 132 and 136 % of control; T/C (dose: 300.0 mg/kg/injection, schedule: Q04DX003 (ip), vehicle: Klucel (hydroxypropylcellulose) (HPC)): 144 % of control

For `CCC(C)P(=O)(N1CC1)N1CC1` (centres undefined), which survivor count (dose: 64.0 mg/kg/injection, schedule: Q01DX015 (ip), vehicle: carboxymethylcellulose (CMC)) is on record?
The survivor count was 6 of 6.

`CCC1=C(CC2NCCc3ccccc32)CC2c3cc(OC)c(OC)cc3CCN2C1` (centres undefined) was tested. Which survivor count [2] did it give?
Its survivor count is 2 of 6.

`CN(C)C(=S)Oc1c([N+](=O)[O-])cc([N+](=O)[O-])cc1C(C)(C)C` was tested. Which survivor count (dose: 100.0 mg/kg/injection, schedule: Q04DX002 (ip), vehicle: saline with Tween-80) did it give?
Its survivor count is 3 of 3.

Which survivor count (dose: 400.0 mg/kg/injection, schedule: Q04DX002 (ip), vehicle: saline with Tween-80) does the source give for `CCCCOP(=O)(OCCCC)SCl` here?
Its survivor count is 0 of 3.

For `CCCCN(CCCl)C1c2ccccc2-c2ccccc21`, which survivor count (dose: 100.0 mg/kg/injection, schedule: Q04DX002 (ip), vehicle: Klucel (hydroxypropylcellulose) (HPC)) is on record?
The survivor count was 3 of 3.

`OC1CCC2NCCCC2C1` (centres undefined) was tested. Which survivor count (dose: 300.0 mg/kg/injection, schedule: Q01DX001 (ip), vehicle: carboxymethylcellulose (CMC)) did it give?
Its survivor count is 1 of 6.

With `COc1ccccc1/C=C(\SS/C(=C/c1ccccc1OC)C(=O)O)C(=O)O` as the molecule, how does the survivor count [7] read?
The survivor count was 2 of 4.

`CC[C@H](/C=C/[C@@H](C)[C@H]1CC[C@H]2[C@@H]3CC=C4C[C@@H](OC(=O)/C=C\C(=O)O)CC[C@]4(C)[C@H]3CC[C@]12C)C(C)C` was tested. Which survivor count (dose: 50.0 mg/kg/injection, schedule: Q01DX009 (ip), vehicle: water) did it give?
Its survivor count is 3 of 6.

And the survivor count (dose: 100.0 mg/kg/injection, schedule: Q01DX001 (ip), vehicle: water)?
The survivor count was 0 of 6.

And the survivor count (dose: 100.0 mg/kg/injection, schedule: Q04DX003 (ip), vehicle: other)?
Its survivor count is 1 of 6.

And the survivor count (dose: 200.0 mg/kg/injection, schedule: Q01DX001 (ip), vehicle: water)?
The survivor count was 0 of 6.

What about the survivor count (dose: 400.0 mg/kg/injection, schedule: Q01DX001 (ip), vehicle: water) of the same molecule?
The survivor count was 0 of 6.

How did the survivor count [3] turn out when `CC1CC(=O)C2CC(Cl)CCC2(C)C1C` (centres undefined) was run?
The survivor count was 6 of 6.

What about the survivor count [4] of the same molecule?
The survivor count was 6 of 6.

Which results are given for `C[CH2][Pb]([Cl])([CH2]C)[CH2]C`?
survivor count (dose: 12.5 mg/kg/injection, schedule: Q01DX009 (ip), vehicle: other): 0 of 6; survivor count (dose: 25.0 mg/kg/injection, schedule: Q01DX009 (ip), vehicle: other): 0 of 6; survivor count (dose: 50.0 mg/kg/injection, schedule: Q01DX009 (ip), vehicle: other): 0 of 6; survivor count (dose: 100.0 mg/kg/injection, schedule: Q01DX009 (ip), vehicle: other): 0 of 6; survivor count (dose: 200.0 mg/kg/injection, schedule: Q01DX009 (ip), vehicle: other): 0 of 6; survivor count (dose: 400.0 mg/kg/injection, schedule: Q01DX009 (ip), vehicle: other): 0 of 6

Which survivor count (dose: 100.0 mg/kg/injection, schedule: Q01DX009 (ip), vehicle: saline with Tween-80) does the source give for `Nc1nc(N)c2c(n1)CN(CC1CCC(Cl)CC1)C2` (centres undefined) here?
The survivor count was 0 of 6.

And the survivor count (dose: 200.0 mg/kg/injection, schedule: Q01DX009 (ip), vehicle: saline with Tween-80)?
The survivor count was 0 of 6.

What about the survivor count (dose: 400.0 mg/kg/injection, schedule: Q01DX009 (ip), vehicle: saline with Tween-80) of the same molecule?
Its survivor count is 0 of 6.

`O=[N+]([O-])c1cc(Cl)cc(Br)c1O` was tested. Which survivor count [6] did it give?
The survivor count was 6 of 6.

And the survivor count [8]?
The survivor count was 6 of 6.

What does the source list for `Cc1cccc(OCC(O)CN2CCCCC2)c1` (centres undefined)?
survivor count [9]: 4 of 6; survivor count [10]: 0 of 3 and 0 of 6

With `Cc1cc2cc3c(=O)[nH]c(=O)nc-3n(CC(O)C(O)C(O)COP(=O)(O)O)c2cc1C` (centres undefined) as the molecule, how does the survivor count [10] read?
The survivor count was 4 of 6.

And the survivor count [11]?
The survivor count was 0 of 6.

How did the survivor count (dose: 300.0 mg/kg/injection, schedule: Q01DX001 (ip), vehicle: other) turn out when `C=CC(C)C/C(CC)=N\NC(N)=O` (centres undefined) was run?
The survivor count was 3 of 6.

With `Cc1cccc(C(=O)NN)n1` as the molecule, how does the survivor count [12] read?
Its survivor count is 2 of 6.

What about the survivor count [9] of the same molecule?
The survivor count was 0 of 6.

What about the survivor count [10] of the same molecule?
Its survivor count is 0 of 6.

What about the survivor count [11] of the same molecule?
The survivor count was 0 of 6.

`Nc1ncnc2c1c(-c1nc(-c3ccccc3)cs1)cn2C1OC(CO)C(O)C1O` (centres undefined) was tested. Which T/C (dose: 100.0 mg/kg/injection, schedule: Q01DX005 (ip), vehicle: saline) did it give?
Its T/C is 131 and 135 % of control.

And the T/C (dose: 200.0 mg/kg/injection, schedule: Q01DX005 (ip), vehicle: saline)?
The T/C was 132 and 148 % of control.

`O=C(COc1ccc(Cl)c(Cl)c1)N(Cc1ccccc1)Cc1ccc[n+](Cc2ccc(S(=O)(=O)F)cc2)c1` was tested. Which survivor count [4] did it give?
Its survivor count is 0 of 6.

How did the survivor count [11] turn out when `COc1cc(C(=O)Nc2ccc(N(C)C)cc2)cc(OC)c1OC` was run?
Its survivor count is 3 of 6.

How did the survivor count [1] turn out when `C=CCOB(OCC=C)OCC=C` was run?
The survivor count was 0 of 6.

Which survivor count [7] does the source give for `CC(=O)OCC(OC(C)=O)C(OC(C)=O)C(/C=C/N=[N+]([O-])c1ccccc1)OC(C)=O` (centres undefined) here?
The survivor count was 0 of 4.

With `N#Cc1nc2c3ccccc3c3ccccc3c2nc1C#N` as the molecule, how does the survivor count (dose: 150.0 mg/kg/injection, schedule: Q01DX009 (ip), vehicle: other) read?
The survivor count was 6 of 6.

`Cc1ccc(S(=O)(=O)NC(=O)C(C)Br)cc1` (centres undefined) was tested. Which survivor count (dose: 75.0 mg/kg/injection, schedule: Q01DX001 (ip), vehicle: steroid suspending solution) did it give?
The survivor count was 6 of 6.

With `O/N=C/c1ccc(O)cc1` as the molecule, how does the survivor count [7] read?
Its survivor count is 0 of 4.

With `COc1ccc([I+]c2ccc(OC)cc2)cc1` as the molecule, how does the survivor count (dose: 25.0 mg/kg/injection, schedule: Q01DX009 (ip), vehicle: saline) read?
Its survivor count is 6 of 6.

And the survivor count [12]?
Its survivor count is 2 of 6.

And the survivor count [9]?
Its survivor count is 0 of 6.

What about the survivor count [5] of the same molecule?
Its survivor count is 2 of 6.

And the survivor count (dose: 200.0 mg/kg/injection, schedule: Q04DX003 (ip), vehicle: acetone)?
Its survivor count is 1 of 6.

And the survivor count [3]?
Its survivor count is 0 of 6.

What about the survivor count [7] of the same molecule?
Its survivor count is 1 of 6.

What about the survivor count [4] of the same molecule?
The survivor count was 0 of 6.

Which survivor count [8] does the source give for `O=C(O)c1ccccc1C(=O)Nc1cc(Cl)ccc1Cl` here?
Its survivor count is 6 of 6.
